Results from paper PMC8884909.
No constants are given. Whether binding was seen depends on the method and setting. In cells and extracts the contact can be indirect. Binding can be weak; no strength is given.

By UniProt entry, the sequences of proteins in these tests, tags left out. Where a name states a change or a piece, a line headed by the entry shows the natural chain unless it says otherwise. Residues count along the entry.
UniProt Q9P1W8, residues 29-387: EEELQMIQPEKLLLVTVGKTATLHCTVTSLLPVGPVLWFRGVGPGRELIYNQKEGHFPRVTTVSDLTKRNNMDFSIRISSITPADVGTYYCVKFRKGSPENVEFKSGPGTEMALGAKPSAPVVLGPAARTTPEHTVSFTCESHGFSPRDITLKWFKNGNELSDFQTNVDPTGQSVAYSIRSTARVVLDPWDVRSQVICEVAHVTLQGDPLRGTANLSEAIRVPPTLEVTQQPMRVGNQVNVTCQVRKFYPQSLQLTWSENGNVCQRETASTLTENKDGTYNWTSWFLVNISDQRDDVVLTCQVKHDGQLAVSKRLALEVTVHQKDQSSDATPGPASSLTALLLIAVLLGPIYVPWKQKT
UniProt P67775: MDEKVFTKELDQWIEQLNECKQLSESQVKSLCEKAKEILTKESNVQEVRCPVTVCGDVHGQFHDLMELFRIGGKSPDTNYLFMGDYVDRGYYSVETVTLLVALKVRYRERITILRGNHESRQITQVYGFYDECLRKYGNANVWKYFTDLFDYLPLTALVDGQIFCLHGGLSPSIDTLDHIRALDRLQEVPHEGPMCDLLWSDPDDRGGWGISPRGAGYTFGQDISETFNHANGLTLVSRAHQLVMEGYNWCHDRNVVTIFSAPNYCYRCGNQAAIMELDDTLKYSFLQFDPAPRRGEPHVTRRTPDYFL

Key:
[1] = target: SIRPγ, overexpressed in A549 cells (human) (UniProt Q9P1W8); experiment: co-IP; A549 cells overexpressing vector, SIRPγ or SIRPγ deletion mutants; immunoprecipitation and immunoblot for SIRPγ, PP2A and MST1
[2] = target: signal regulatory protein γ (SIRPγ) (human (endogenous in A549 and H1975)) (UniProt Q9P1W8); experiment: co-IP; endogenous proteins precipitated from A549 and H1975 cell lysates with specific antibodies (anti-SIRPγ, anti-MST1, anti-PP2A), immunoblot
[3] = target: protein phosphatase 2A (PP2A) (human (endogenous in A549 and H1975)) (UniProt P67775); experiment: as above

Row | binding [1] | binding [2] | binding [3] | Substance
1 | binds | binds | – | protein phosphatase 2A (PP2A) (from UniProt P67775) (enzyme)
2 | – | – | binds | signal regulatory protein γ (SIRPγ) (from UniProt Q9P1W8 29-387)
